Patent US5227487A, “Certain tricyclic and pentacyclic-hetero nitrogen rhodol dyes” (Molecular Probes, Inc., priority 1990, dated 1993)

Assay: Chemical reactivity of rhodol dyes with model compounds
Details: for reaction with 1-aminobutane: TLC or HPLC

Row | Compound | reaction with 1-aminobutane | reaction with 2-mercaptoethanol | also measured
1 | O=C(ON1C(=O)CCC1=O)c1ccc(C(=O)O)c(-c2c3cc(Cl)c(=O)cc-3oc3c4c5c(cc23)CCCN5CCC4)c1 [Compound 29] | reacts to form new products |  | 
2 | O=C(CCl)NCc1c2oc3c4c5c(cc3c(-c3ccccc3C(=O)O)c-2ccc1=O)CCCN5CCC4 [Compound 35] |  | reacts | 
3 | O=C(CI)NCCCCCNC(=O)CCc1cc2c(-c3ccccc3C(=O)O)c3cc4c5c(c3oc-2cc1=O)CCCN5CCC4 [Compound 44] |  | reacts | 
4 | NNC(=O)CCc1cc2c(-c3ccccc3C(=O)O)c3cc4c5c(c3oc-2cc1=O)CCCN5CCC4 [Compound 49] |  |  | reaction with acetone (acetone): reacts
5 | O=C1CCc2cc3c(cc2O1)Oc1c(cc2c4c1CCCN4CCC2)C31OC(=O)c2ccccc21 (stereo not drawn) [Compound 63] | reacts to form new products |  | reaction with amines and hydrazine (amines and hydrazine, to give 50 and 49): reacts

Some compounds share one wording; it may come from a single statement.
